{"sequences": {"note": "The chains behind the UniProt entries cited, without tags or fusion partners.", "UniProt P27705": "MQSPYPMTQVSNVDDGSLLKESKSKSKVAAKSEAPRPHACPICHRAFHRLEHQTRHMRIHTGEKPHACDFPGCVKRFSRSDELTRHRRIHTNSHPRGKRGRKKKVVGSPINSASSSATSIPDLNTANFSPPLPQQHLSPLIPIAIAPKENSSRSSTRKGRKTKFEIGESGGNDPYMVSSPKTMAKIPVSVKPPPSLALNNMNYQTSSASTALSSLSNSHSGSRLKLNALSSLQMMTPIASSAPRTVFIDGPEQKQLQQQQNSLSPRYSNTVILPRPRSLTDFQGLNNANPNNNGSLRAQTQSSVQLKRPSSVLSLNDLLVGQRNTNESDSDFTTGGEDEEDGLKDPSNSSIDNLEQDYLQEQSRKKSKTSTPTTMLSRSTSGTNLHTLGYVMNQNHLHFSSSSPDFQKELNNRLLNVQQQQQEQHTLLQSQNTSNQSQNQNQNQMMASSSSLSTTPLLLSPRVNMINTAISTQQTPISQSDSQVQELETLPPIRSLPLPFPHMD", "UniProt P53035": "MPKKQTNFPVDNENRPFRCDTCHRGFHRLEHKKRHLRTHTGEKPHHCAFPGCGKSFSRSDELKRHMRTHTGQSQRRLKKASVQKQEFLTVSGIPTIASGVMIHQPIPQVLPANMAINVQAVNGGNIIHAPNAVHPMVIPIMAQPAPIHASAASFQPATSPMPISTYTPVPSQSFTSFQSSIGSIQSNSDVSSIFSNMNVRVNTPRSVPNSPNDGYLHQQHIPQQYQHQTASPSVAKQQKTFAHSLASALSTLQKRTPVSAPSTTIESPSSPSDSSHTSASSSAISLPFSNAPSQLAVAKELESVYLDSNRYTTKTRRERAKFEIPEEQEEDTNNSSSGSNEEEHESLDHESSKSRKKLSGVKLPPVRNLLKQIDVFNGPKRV"}, "source": "paper doi:10.1101/786475", "binders": {"B1": {"name": "Gln1p-GFP (enzyme, UniProt P32288 1-370)", "chain": "MAEASIEKTQILQKYLELDQRGRIIAEYVWIDGTGNLRSKGRTLKKRITSIDQLPEWNFDGSSTNQAPGHDSDIYLKPVAYYPDPFRRGDNIVVLAACYNNDGTPNKFNHRHEAAKLFAAHKDEEIWFGLEQEYTLFDMYDDVYGWPKGGYPAPQGPYYCGVGAGKVYARDMIEAHYRACLYAGLEISGINAEVMPSQWEFQVGPCTGIDMGDQLWMARYFLHRVAEEFGIKISFHPKPLKGDWNGAGCHTNVSTKEMRQPGGMKYIEQAIEKLSKRHAEHIKLYGSDNDMRLTGRHETASMTAFSSGVANRGSSIRIPRSVAKEGYGYFEDRRPASNIDPYLVTGIMCETVCGAIDNADMTKEFERESS"}, "B2": {"name": "Cap2p-TAP (protein, UniProt P13517 1-287)", "chain": "MSDAQFDAALDLLRRLNPTTLQENLNNLIELQPNLAQDLLSSVDVPLSTQKDSADSNREYLCCDYNRDIDSFRSPWSNTYYPELSPKDLQDSPFPSAPLRKLEILANDSFDVYRDLYYEGGISSVYLWDLNEEDFNGHDFAGVVLFKKNQSDHSNWDSIHVFEVTTSPSSPDSFNYRVTTTIILHLDKTKTDQNSHMMLSGNLTRQTEKDIAIDMSRPLDVIFTSHVANLGSLIEDIESQMRNLLETVYFEKTRDIFHQTKNAAIASSAEEANKDAQAEVIRGLQSL"}, "B3": {"name": "purified and biotinylated cytoplasmic domain of the Msb2p protein (HIS-Msb2p^CYT) (domain or fragment, UniProt P32334 1207-1306)", "chain": "AFKYIIRRRIQSQEIIKNPEISSISSSEFGGEKNYNNEKRMSVQESITQSMRIQNWMDDSYYGHGLTNNDSTPTRHNTSSSIPKISRPIASQNSLGWNEV", "modifications": "biotinylated in vitro (sites not given)"}}, "key": {"[1]": {"target": "T1, HIS-Msb2p^CYT immobilised on Talon beads (S. cerevisiae) (UniProt P32334)", "T1 sequence": "B3 chain", "test": "pull-down"}, "[2]": {"target": "T2, Bem1p (spotted on the yeast ProtoArray) (S. cerevisiae) (UniProt P29366)", "T2 sequence": "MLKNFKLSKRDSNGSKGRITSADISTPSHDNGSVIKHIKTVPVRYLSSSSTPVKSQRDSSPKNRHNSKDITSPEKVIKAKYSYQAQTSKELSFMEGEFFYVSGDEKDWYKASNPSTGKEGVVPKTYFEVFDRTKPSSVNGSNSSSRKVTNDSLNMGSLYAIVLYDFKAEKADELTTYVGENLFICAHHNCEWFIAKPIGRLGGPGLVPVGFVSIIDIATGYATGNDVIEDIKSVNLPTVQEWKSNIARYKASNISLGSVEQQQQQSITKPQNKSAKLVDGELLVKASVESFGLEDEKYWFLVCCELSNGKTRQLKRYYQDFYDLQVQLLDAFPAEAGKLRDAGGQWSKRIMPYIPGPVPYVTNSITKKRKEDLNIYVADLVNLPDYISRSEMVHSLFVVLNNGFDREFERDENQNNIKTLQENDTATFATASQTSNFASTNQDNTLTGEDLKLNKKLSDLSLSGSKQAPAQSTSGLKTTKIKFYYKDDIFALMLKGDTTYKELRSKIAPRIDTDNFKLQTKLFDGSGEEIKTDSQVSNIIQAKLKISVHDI", "test": "peptide or protein array"}, "[3]": {"target": "T3, Mam33p (spotted on the yeast ProtoArray) (S. cerevisiae) (UniProt P40513)", "T3 sequence": "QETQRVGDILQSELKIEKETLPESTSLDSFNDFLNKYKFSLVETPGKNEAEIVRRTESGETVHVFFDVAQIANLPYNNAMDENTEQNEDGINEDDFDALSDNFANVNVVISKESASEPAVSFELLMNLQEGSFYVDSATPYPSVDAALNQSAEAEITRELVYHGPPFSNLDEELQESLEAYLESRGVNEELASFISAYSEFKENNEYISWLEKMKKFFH", "test": "peptide or protein array"}, "[4]": {"target": "T4, Hri1p (spotted on the yeast ProtoArray) (S. cerevisiae) (UniProt Q05905)", "T4 sequence": "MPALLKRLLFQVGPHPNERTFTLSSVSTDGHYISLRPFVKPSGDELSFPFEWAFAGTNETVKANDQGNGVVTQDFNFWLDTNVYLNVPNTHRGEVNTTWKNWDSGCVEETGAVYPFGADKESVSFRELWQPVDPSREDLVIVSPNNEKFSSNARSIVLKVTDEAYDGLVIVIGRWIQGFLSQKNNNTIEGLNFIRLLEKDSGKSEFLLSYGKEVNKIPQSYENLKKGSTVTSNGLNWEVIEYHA", "test": "peptide or protein array"}, "[5]": {"target": "Mig1p (spotted on the yeast ProtoArray) (S. cerevisiae) (UniProt P27705)", "test": "peptide or protein array"}, "[6]": {"target": "Mig2p (spotted on the yeast ProtoArray) (S. cerevisiae) (UniProt P53035)", "test": "peptide or protein array"}}, "note": "Results are given in words; binding and its absence hold for the method and conditions named. For some of these results: Binding seen in cells or lysates may run through a third protein. Some binding calls cover weakened binding; strength is not graded here. Sequences can lack the tags named with a protein."}
{"binder": "B1", "values": [{"measurement": "binding", "setting": "[1]", "result": "binds"}]}
{"binder": "B2", "values": [{"measurement": "binding", "setting": "[1]", "result": "binds"}]}
{"binder": "B3", "values": [{"measurement": "binding", "setting": "[2]", "result": "no binding"}, {"measurement": "binding", "setting": "[3]", "result": "binds"}, {"measurement": "binding", "setting": "[4]", "result": "binds"}, {"measurement": "binding", "setting": "[5]", "result": "no binding"}, {"measurement": "binding", "setting": "[6]", "result": "no binding"}]}
